These are yes or no findings as the source states them, for the method shown. Binding seen in cells or lysates may run through a third protein. A result given as binding can be weak or reduced; the word gives no strength.

Protein sequences, listed by entry. Tags and fused reporters are not part of them. Lines headed by an entry give the natural chain unless they say otherwise; changes in a name come on top.
UniProt Q16254: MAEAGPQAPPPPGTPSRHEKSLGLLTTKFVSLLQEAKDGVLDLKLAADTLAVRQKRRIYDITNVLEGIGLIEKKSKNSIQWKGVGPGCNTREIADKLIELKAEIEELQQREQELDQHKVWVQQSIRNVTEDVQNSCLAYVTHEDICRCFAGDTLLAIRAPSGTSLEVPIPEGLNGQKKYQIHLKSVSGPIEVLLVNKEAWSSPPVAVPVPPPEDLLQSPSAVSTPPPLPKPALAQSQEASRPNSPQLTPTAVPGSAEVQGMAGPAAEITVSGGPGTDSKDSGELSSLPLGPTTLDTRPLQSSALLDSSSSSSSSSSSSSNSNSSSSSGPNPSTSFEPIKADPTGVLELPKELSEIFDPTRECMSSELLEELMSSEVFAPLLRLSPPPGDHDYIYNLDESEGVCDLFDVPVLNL
UniProt P46063: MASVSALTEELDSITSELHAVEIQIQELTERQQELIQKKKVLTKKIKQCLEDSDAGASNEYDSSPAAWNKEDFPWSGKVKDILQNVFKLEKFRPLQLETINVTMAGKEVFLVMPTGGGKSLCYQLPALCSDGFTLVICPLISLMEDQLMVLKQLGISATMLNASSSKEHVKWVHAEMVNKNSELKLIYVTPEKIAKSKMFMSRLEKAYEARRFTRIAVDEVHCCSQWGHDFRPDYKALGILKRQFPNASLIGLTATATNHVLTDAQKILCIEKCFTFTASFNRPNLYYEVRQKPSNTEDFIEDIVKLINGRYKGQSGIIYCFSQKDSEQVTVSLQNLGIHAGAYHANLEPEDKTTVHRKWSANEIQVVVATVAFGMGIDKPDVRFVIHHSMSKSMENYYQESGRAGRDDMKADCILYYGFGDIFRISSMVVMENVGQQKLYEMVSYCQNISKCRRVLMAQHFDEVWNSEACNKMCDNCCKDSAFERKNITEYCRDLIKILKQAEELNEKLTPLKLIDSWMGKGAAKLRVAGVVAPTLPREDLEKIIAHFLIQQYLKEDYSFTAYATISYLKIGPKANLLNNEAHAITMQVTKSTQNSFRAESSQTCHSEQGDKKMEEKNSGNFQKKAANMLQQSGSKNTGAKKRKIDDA

The test deals with GST-E2f4 C-terminal fragment (amino acids 300-413) (human (ORF amplified from HCT116 mRNA)) (UniProt Q16254). The experiment in a line: pull-down; GST-E2f4 fusion proteins on glutathione agarose beads, washed with TNT-300 buffer, incubated 4 h with U2OS or shTrim33 U2OS whole cell lysates; immunoblot; only the target purified. In general terms: In western blotting, separated proteins are transferred to a membrane and probed.

On to “Recql (endogenous, U2OS) (from UniProt P46063 1-649)”, for which the binding result is “binds”.

The record behind these values is paper PMC10447549.
